Where a chain is given by its changes, count along the chain named. These are yes or no findings as the source states them, for the method shown. Some results given as binding are weak or reduced against the parent protein; the word gives no strength.
Tests used:
[1] = biological target: recombinant human FGFR1b-Fc (human) (UniProt P11362); experiment: ELISA, plate coated with HuFGFR1b
[2] = biological target: recombinant human FGFR1b-Fc (human) (UniProt P11362); experiment: ELISA on FGFR family Fc fusion proteins
[3] = biological target: recombinant human FGFR1b-Fc (human) (UniProt P11362); experiment: SPR (Biacore)

The chains behind the UniProt entries cited, without tags or fusion partners. Where a name states a change or a piece, a line headed by the entry shows the natural chain unless it says otherwise. A line that says so, or that is headed by a name, gives the form on record, which may keep a tag or linker.
recombinant human FGFR1b-Fc (P11362, form named): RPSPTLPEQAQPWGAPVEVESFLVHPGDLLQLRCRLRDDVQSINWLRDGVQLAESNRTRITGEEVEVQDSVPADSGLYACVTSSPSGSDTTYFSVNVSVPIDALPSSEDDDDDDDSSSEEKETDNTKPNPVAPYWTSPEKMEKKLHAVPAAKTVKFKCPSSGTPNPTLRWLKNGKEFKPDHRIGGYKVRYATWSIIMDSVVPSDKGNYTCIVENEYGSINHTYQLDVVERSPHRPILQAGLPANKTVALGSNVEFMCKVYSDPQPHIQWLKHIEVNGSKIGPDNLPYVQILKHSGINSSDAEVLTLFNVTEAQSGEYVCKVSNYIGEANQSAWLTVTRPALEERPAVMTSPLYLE

B1: Ab 21 (antibody, V domains shown)
VH: EVQLHQSGTVLARPGASVKMSCKTSGYTFTNYWMHWIKQRPGQGLEWIGAIYPENGDINYNQKFKGKAKLTAVTSASTAYMDLSSLTNEDSAVYYCTSRGDYWGQGTTLTVSS
VL: QIVLTQSPAIMSASPGEKVTMTCSASSGLSYMSWYQQKPGSSPRLLIYDTSNLASGVPVRFSGSGSGTSYSLTISRMEAEDAATYYCQQWSSYPYTFGGGTKLEIK
**Q.** B1 was tested. Which binding [1] did it give?
**A.** Its binding is “binds”.

**Q.** What about the binding [2] of the same binder?
**A.** The binding was “binds”.

B2: Ab hu21-26 (antibody, human IgG1, V domains shown)
VH: EVQLVQSGAEVKKPGASVKVSCKASGYTFTNYWMHWVRQAPGQGLEWMGAIYPENRDINYNQKFKGRVTLTRDTSISTAYMELSRLRSDDTAVYYCTSRGDYWGQGTTVTVSS
VL: AIQLTQSPSSLSASVGDRVTITCSASSGLSYMSWYQQKPGKAPKLLIYDTSNLASGVPSRFSGSGSGTDFTLTISSLQPEDFATYYCQQWSSYPYTFGQGTKLEIK
**Q.** How did the binding [2] turn out when B2 was run?
**A.** The binding was “binds”.

**Q.** What about the binding [3] of the same binder?
**A.** The binding was “binds”.

B3: Ab hu21-21 (antibody, V domains shown)
VH: B2 VH with R56G
VL: B2 VL
**Q.** For B3, which binding [2] is on record?
**A.** Its binding is “binds”.

**Q.** What about the binding [3] of the same binder?
**A.** Its binding is “binds”.

— patent US20230055566A1
